Our source for the binding values is PMC3128581.

Protein sequences, listed by entry. Tags and fused reporters are not part of them. Residues count along the entry.
UniProt P01137, residues 279-390: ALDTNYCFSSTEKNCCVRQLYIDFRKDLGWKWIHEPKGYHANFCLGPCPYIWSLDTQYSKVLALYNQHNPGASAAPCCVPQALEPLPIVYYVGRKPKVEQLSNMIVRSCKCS

One assay concerns the target T1, Fc-NRP2 (UniProt O60462).
T1 sequence: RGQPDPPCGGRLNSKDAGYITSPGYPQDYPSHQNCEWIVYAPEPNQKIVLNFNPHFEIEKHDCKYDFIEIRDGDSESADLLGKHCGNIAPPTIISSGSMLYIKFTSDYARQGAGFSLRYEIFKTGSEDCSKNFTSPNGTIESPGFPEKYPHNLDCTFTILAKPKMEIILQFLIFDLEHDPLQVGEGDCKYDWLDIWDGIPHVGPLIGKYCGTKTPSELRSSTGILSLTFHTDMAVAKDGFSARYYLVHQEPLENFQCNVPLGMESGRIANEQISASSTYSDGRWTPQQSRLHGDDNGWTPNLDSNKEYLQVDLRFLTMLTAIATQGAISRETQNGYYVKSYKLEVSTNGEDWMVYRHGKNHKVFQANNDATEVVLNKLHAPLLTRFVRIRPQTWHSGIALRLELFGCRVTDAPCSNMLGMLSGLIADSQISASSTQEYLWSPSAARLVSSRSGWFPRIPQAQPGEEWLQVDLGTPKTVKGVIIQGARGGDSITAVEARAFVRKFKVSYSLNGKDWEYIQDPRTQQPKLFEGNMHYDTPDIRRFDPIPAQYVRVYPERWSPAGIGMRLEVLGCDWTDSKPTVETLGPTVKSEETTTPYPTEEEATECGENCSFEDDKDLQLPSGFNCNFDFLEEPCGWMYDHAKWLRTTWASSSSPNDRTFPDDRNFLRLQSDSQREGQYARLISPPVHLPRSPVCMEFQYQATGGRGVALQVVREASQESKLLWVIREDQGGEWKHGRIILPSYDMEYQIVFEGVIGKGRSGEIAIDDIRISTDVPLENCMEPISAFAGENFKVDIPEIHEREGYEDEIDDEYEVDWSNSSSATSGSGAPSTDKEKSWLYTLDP
Description: SPR; Fc-NRP2 covalently grafted on a chemically activated self assembled monolayer of a homemade chip (7.4 +/- 0.1 femtomole/mm^2 of NRP2); analytes injected at 250 nM in PBS-Tween 0.05%, pH 7.4; Biacore 2000, 25°C, flow rate between 2 and 30 µl/min; both purified. (In general: SPR reads the build-up and loss of mass on a sensor chip optically.)

Assay [1] addresses T2, TGFβ-type1 receptor (TGFRI) (human (endogenous in HT29)) (UniProt P36897).
T2 sequence: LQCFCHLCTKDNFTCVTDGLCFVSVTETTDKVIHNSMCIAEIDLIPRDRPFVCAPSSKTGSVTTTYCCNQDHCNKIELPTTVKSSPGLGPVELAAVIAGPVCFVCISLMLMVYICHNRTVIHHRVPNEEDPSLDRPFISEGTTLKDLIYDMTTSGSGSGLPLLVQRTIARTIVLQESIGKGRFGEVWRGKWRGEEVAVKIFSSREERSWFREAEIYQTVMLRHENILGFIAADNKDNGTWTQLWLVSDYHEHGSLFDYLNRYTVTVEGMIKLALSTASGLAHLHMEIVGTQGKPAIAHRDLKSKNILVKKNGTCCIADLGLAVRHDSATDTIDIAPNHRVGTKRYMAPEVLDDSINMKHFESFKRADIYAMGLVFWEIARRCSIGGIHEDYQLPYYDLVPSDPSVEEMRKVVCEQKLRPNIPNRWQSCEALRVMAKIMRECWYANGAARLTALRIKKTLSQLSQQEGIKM
Description: co-IP; HT29^NRP2 cell lysate (1% Triton X100, 100 mM NaCl, Tris-HCl pH 7.4); rabbit anti-TGFRI polyclonal antibodies or rabbit IgG, overnight at 4°C, Protein-G magnetic beads; Western blot with anti-NRP2. Background: A western blot detects proteins with antibodies after separation by electrophoresis.

These are yes or no findings as the source states them, for the method shown. For some assays here: In cells and extracts the contact can be indirect. Some binding calls cover weakened binding; strength is not graded here. For some assays here: Sequences can lack the tags named with a protein.

“transforming growth factor β1 (TGF-β1) (from UniProt P01137 279-390) (ligand)”: in the assay with Fc-NRP2, the binding result is “binds”.

B1: neuropilin-2 (NRP2) expressed in HT29^NRP2 cells (receptor, UniProt O60462 21-931)
chain: RGQPDPPCGGRLNSKDAGYITSPGYPQDYPSHQNCEWIVYAPEPNQKIVLNFNPHFEIEKHDCKYDFIEIRDGDSESADLLGKHCGNIAPPTIISSGSMLYIKFTSDYARQGAGFSLRYEIFKTGSEDCSKNFTSPNGTIESPGFPEKYPHNLDCTFTILAKPKMEIILQFLIFDLEHDPLQVGEGDCKYDWLDIWDGIPHVGPLIGKYCGTKTPSELRSSTGILSLTFHTDMAVAKDGFSARYYLVHQEPLENFQCNVPLGMESGRIANEQISASSTYSDGRWTPQQSRLHGDDNGWTPNLDSNKEYLQVDLRFLTMLTAIATQGAISRETQNGYYVKSYKLEVSTNGEDWMVYRHGKNHKVFQANNDATEVVLNKLHAPLLTRFVRIRPQTWHSGIALRLELFGCRVTDAPCSNMLGMLSGLIADSQISASSTQEYLWSPSAARLVSSRSGWFPRIPQAQPGEEWLQVDLGTPKTVKGVIIQGARGGDSITAVEARAFVRKFKVSYSLNGKDWEYIQDPRTQQPKLFEGNMHYDTPDIRRFDPIPAQYVRVYPERWSPAGIGMRLEVLGCDWTDSKPTVETLGPTVKSEETTTPYPTEEEATECGENCSFEDDKDLQLPSGFNCNFDFLEEPCGWMYDHAKWLRTTWASSSSPNDRTFPDDRNFLRLQSDSQREGQYARLISPPVHLPRSPVCMEFQYQATGGRGVALQVVREASQESKLLWVIREDQGGEWKHGRIILPSYDMEYQIVFEGVIGKGRSGEIAIDDIRISTDVPLENCMEPISAFAGENFKVDIPEIHEREGYEDEIDDEYEVDWSNSSSATSGSGAPSTDKEKSWLYTLDPILITIIAMSSLGVLLGATCAGLLLYCTCSYSGLSSRSCTTLENYNFELYDGLKHKVKMNHQKCCSEA
For B1, the binding entry in assay [1] is on record as “binds”.
